Experimental data: PubChem BioAssay AID1224828 (NIAID, 2016)

- Screen: 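Regulators linking TLR4 signalling to p65 nuclear translocation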 (primary screen)
- System: mouse RAW264.7 G9 macrophage reporter cells (GFP-p65, Tnf promoter-mCherry)
- Knock-down reagent: siRNA pool against mouse genes, 100 nM
- Duration: 2 days siRNA transfection, then 40 min LPS before fixation
- Treatment: LPS (Salmonella minnesota R595) at 10 ng/ml
- Measurement: 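Imaged p65 nuclear translocation ratio, normalised to the plate median, converted to robust z-scores and averaged across two replicates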
- Scale: p65 translocation robust z-score: higher = more nuclear NF-kappaB p65 after LPS than the plate median; nuclear/cytoplasmic p65 ratio: higher = more nuclear NF-kappaB p65
- Rule for the call: 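Called active when z exceeds 3.3 or falls under -1.56 (median of Tlr4 controls), giving activity score of at least 50; no calls for control wells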
- Calls: active = hit (p65 shift raised or lowered); inactive = no clear change
In all, the deposit lists about 17,000 reagents; shown is a random part of them. In the full data, 762 (4.5%) got an active call. 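Active calls include both raised and lowered p65 entry, mostly lowered; wells with fewer than 50 cells lack a z-score.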 Raw values vary from plate to plate and are shown uncorrected. Entries without a mark were called inactive.

Sash1 | p65 translocation robust z-score = 0.19; nuclear/cytoplasmic p65 ratio, rep 1 = 1.42; nuclear/cytoplasmic p65 ratio, rep 2 = 1.49; low cell count flag = enough cells to score
Or51s1 | nuclear/cytoplasmic p65 ratio, rep 1 = 1.58; nuclear/cytoplasmic p65 ratio, rep 2 = 0; low cell count flag = fewer than 50 cells per well; well left out of scoring
Smim14 | p65 translocation robust z-score = -0.97; nuclear/cytoplasmic p65 ratio, rep 1 = 1.34; nuclear/cytoplasmic p65 ratio, rep 2 = 1.38; low cell count flag = enough cells to score
Ctxn1 | nuclear/cytoplasmic p65 ratio, rep 1 = 1.19; nuclear/cytoplasmic p65 ratio, rep 2 = 1.56; low cell count flag = fewer than 50 cells per well; well left out of scoring
Calml4 | p65 translocation robust z-score = 0.34; nuclear/cytoplasmic p65 ratio, rep 1 = 1.59; nuclear/cytoplasmic p65 ratio, rep 2 = 1.9; low cell count flag = enough cells to score
Crbn | p65 translocation robust z-score = -0.12; nuclear/cytoplasmic p65 ratio, rep 1 = 1.64; nuclear/cytoplasmic p65 ratio, rep 2 = 1.67; low cell count flag = enough cells to score
Or2a14 | p65 translocation robust z-score = 1.67; nuclear/cytoplasmic p65 ratio, rep 1 = 1.7; nuclear/cytoplasmic p65 ratio, rep 2 = 1.43; low cell count flag = enough cells to score
Or8w1 | p65 translocation robust z-score = 0.25; nuclear/cytoplasmic p65 ratio, rep 1 = 1.71; nuclear/cytoplasmic p65 ratio, rep 2 = 1.6; low cell count flag = enough cells to score
Serpinf2 | p65 translocation robust z-score = 1.4; nuclear/cytoplasmic p65 ratio, rep 1 = 1.66; nuclear/cytoplasmic p65 ratio, rep 2 = 1.85; low cell count flag = enough cells to score
Kit | p65 translocation robust z-score = 0.23; nuclear/cytoplasmic p65 ratio, rep 1 = 1.74; nuclear/cytoplasmic p65 ratio, rep 2 = 1.4; low cell count flag = enough cells to score
Tada1 | p65 translocation robust z-score = -0.3; nuclear/cytoplasmic p65 ratio, rep 1 = 1.47; nuclear/cytoplasmic p65 ratio, rep 2 = 1.56; low cell count flag = enough cells to score
Gdf15 | p65 translocation robust z-score = -0.53; nuclear/cytoplasmic p65 ratio, rep 1 = 1.33; nuclear/cytoplasmic p65 ratio, rep 2 = 1.33; low cell count flag = enough cells to score
St8sia6 | p65 translocation robust z-score = 1.09; nuclear/cytoplasmic p65 ratio, rep 1 = 1.59; nuclear/cytoplasmic p65 ratio, rep 2 = 1.34; low cell count flag = enough cells to score
H2-M10.5 | p65 translocation robust z-score = 2.3; nuclear/cytoplasmic p65 ratio, rep 1 = 2.03; nuclear/cytoplasmic p65 ratio, rep 2 = 1.84; low cell count flag = enough cells to score
Or8c9 | nuclear/cytoplasmic p65 ratio, rep 1 = 1.72; nuclear/cytoplasmic p65 ratio, rep 2 = 1.72; low cell count flag = fewer than 50 cells per well; well left out of scoring
Tkfc | p65 translocation robust z-score = -0.06; nuclear/cytoplasmic p65 ratio, rep 1 = 1.68; nuclear/cytoplasmic p65 ratio, rep 2 = 1.38; low cell count flag = enough cells to score
Tbpl2 | p65 translocation robust z-score = -0.39; nuclear/cytoplasmic p65 ratio, rep 1 = 1.25; nuclear/cytoplasmic p65 ratio, rep 2 = 1.21; low cell count flag = enough cells to score
Col8a1 | p65 translocation robust z-score = -1.42; nuclear/cytoplasmic p65 ratio, rep 1 = 1.22; nuclear/cytoplasmic p65 ratio, rep 2 = 1.25; low cell count flag = enough cells to score
Ttc41 | p65 translocation robust z-score = 0.12; nuclear/cytoplasmic p65 ratio, rep 1 = 1.64; nuclear/cytoplasmic p65 ratio, rep 2 = 1.81; low cell count flag = enough cells to score
Tspan7 | p65 translocation robust z-score = -0.39; nuclear/cytoplasmic p65 ratio, rep 1 = 1.5; nuclear/cytoplasmic p65 ratio, rep 2 = 1.43; low cell count flag = enough cells to score
Itln1 | nuclear/cytoplasmic p65 ratio, rep 1 = 1.12; nuclear/cytoplasmic p65 ratio, rep 2 = 0.967; low cell count flag = fewer than 50 cells per well; well left out of scoring
Tpm3 | p65 translocation robust z-score = -0.61; nuclear/cytoplasmic p65 ratio, rep 1 = 1.29; nuclear/cytoplasmic p65 ratio, rep 2 = 1.2; low cell count flag = enough cells to score
Wdr26 | p65 translocation robust z-score = 1.68; nuclear/cytoplasmic p65 ratio, rep 1 = 1.59; nuclear/cytoplasmic p65 ratio, rep 2 = 1.44; low cell count flag = enough cells to score
Zfp180 | p65 translocation robust z-score = -0.04; nuclear/cytoplasmic p65 ratio, rep 1 = 1.4; nuclear/cytoplasmic p65 ratio, rep 2 = 1.24; low cell count flag = enough cells to score
Dao | p65 translocation robust z-score = -0.44; nuclear/cytoplasmic p65 ratio, rep 1 = 1.68; nuclear/cytoplasmic p65 ratio, rep 2 = 1.3; low cell count flag = enough cells to score
Rrp12 | p65 translocation robust z-score = -0.26; nuclear/cytoplasmic p65 ratio, rep 1 = 1.29; nuclear/cytoplasmic p65 ratio, rep 2 = 1.55; low cell count flag = enough cells to score
Fabp5 | p65 translocation robust z-score = -1.29; nuclear/cytoplasmic p65 ratio, rep 1 = 1.29; nuclear/cytoplasmic p65 ratio, rep 2 = 1.2; low cell count flag = enough cells to score

2 successive records already listed, quoted:
Sash1 | p65 translocation robust z-score = 0.19; nuclear/cytoplasmic p65 ratio, rep 1 = 1.42; nuclear/cytoplasmic p65 ratio, rep 2 = 1.49; low cell count flag = enough cells to score
Or51s1 | nuclear/cytoplasmic p65 ratio, rep 1 = 1.58; nuclear/cytoplasmic p65 ratio, rep 2 = 0; low cell count flag = fewer than 50 cells per well; well left out of scoring
